Laboratory results: article PMC6160458
Results are given in words; binding and its absence hold for the method and conditions named. Binding seen in cells or lysates may run through a third protein.

Protein sequences, listed by entry. Tags and fused reporters are not part of them.
UniProt Q22799: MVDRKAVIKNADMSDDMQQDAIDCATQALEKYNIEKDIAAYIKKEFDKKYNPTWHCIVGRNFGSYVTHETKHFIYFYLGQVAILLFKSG

Molecular target: DLC-1::GFP (dynein light chain 1 fused to GFP) (C. elegans) (UniProt Q22799)
Assay: co-IP; DLC-1::GFP precipitated with GFP-trap; blot probed with an antibody against CED-4, pull-down of DLC-1::GFP verified with an antibody against GFP

binding: no binding
B1: CED-4 (Apaf1) (protein, UniProt P30429 1-549)
chain: MLCEIECRALSTAHTRLIHDFEPRDALTYLEGKNIFTEDHSELISKMSTRLERIANFLRIYRRQASELGPLIDFFNYNNQSHLADFLEDYIDFAINEPDLLRPVVIAPQFSRQMLDRKLLLGNVPKQMTCYIREYHVDRVIKKLDEMCDLDSFFLFLHGRAGSGKSVIASQALSKSDQLIGINYDSIVWLKDSGTAPKSTFDLFTDILLMLKSEDDLLNFPSVEHVTSVVLKRMICNALIDRPNTLFVFDDVVQEETIRWAQELRLRCLVTTRDVEISNAASQTCEFIEVTSLEIDECYDFLEAYGMPMPVGEKEEDVLNKTIELSSGNPATLMMFFKSCEPKTFEKMAQLNNKLESRGLVGVECITPYSYKSLAMALQRCVEVLSDEDRSALAFAVVMPPGVDIPVKLWSCVIPVDICSNEEEQLDDEVADRLKRLSKRGALLSGKRMPVLTFKIDHIIHMFLKHVVDAQTIANGISILEQRLLEIGNNNVSVPERHIPSHFQKFRRSSASEMYPKTTEETVIRPEDFPKFMQLHQKFYDSLKNFACC
